Test results published in PubChem BioAssay AID504467 (National Center for Advancing Translational Sciences (NCATS), 2011).
The whole screen tested about 330,000 compounds, of which about 7,700 (2.3%) were called active. Inconclusive means that the source gave no clear call. Such entries were picked first, then a sample of the others. Calls come from the whole dose curve; as a rule, active = well fitted inhibition curve with a large enough effect; inconclusive = small, poorly fitted or top-dose-only effect, or effect the other way; inactive = flat fitted curve, though single readings scatter. Where the call is inconclusive, the potency comes from a doubtful curve fit.

Test: qHTS screen for small molecules that inhibit ELG1-dependent DNA repair in human embryonic kidney (HEK293T) cells expressing luciferase-tagged ELG1; note: nearly all actives have a fitted effect of over 55% in size
Conditions: HEK293T ELG1-luciferase reporter, luminescence, 16 h, DNA damage induced by 5-fluorouridine; activity change, negative = inhibition: at 46.1 µM (top of the series)
Summary of the method: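 Reporter activity after DNA damage by 5-fluorouridine is monitored. Compound-treated cells incubate 16 hr at 37 °C, then ONE-Glo is added for 30 min before luminescence reading.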
% is set by controls: 0 for no effect and ±100 for the full control effect; potency is the fitted concentration of half-maximal effect.

SMILES | Potency | activity change, negative = inhibition
CCC(C(=O)OCC(=O)c1c(N)n(CC(C)C)c(=O)n(C)c1=O)c1ccccc1 (stereo unspecified) | inconclusive: 23.1 µM [inhibitor, single point] | 
CC(=O)/C(=C(/O)c1ccccc1)c1nc2ccccc2[nH]1 | inconclusive: 16.4 µM [activator, partial curve] | 
COc1ccc(OC)c(NC(=O)Cc2coc3cc(C)cc(C)c23)c1 | inconclusive: 20.6 µM [inhibitor, single point] | 
c1ccc(-c2csc(=Nc3cccnc3)n2CC2CCCO2)cc1 (stereo unspecified) | inconclusive: 16.4 µM [inhibitor, partial curve, poor fit] | 
CC(C)=C(NC(=O)c1ccccc1)C(=O)NC(Cc1ccccc1)C(=O)O (stereo unspecified) | inconclusive: 18.3 µM [activator, partial curve, poor fit] | 
COc1ccc2[nH]c(C)c(CCNC(=S)Nc3ccc(F)cc3)c2c1 | inconclusive: 20.6 µM [inhibitor, single point] | 
O=C(Nc1ccccc1-c1ccccc1)c1ccc(=O)[nH]n1 | inconclusive: 23.1 µM [activator, single point] | 
COc1cc2c(cc1OC)C(C)N(C(=O)c1nccnc1C(=O)O)CC2 (stereo unspecified) |  | inactive: -4.05%
CC(C)COC(=O)c1ccc(NC(=O)C2C3C=CC(C3)C2C(=O)O)cc1 (stereo unspecified) | inconclusive: 9.2 µM [activator, partial curve] | 
COC(=O)c1ccc(NC(=O)c2cccnc2)cc1 |  | inactive: 9.59%
CCOC(=O)N1CCN(CC(=O)Nc2cc(C)nn2-c2nc3ccccc3s2)CC1 | active: 10.3 µM | 
C[C@@H](CO)NC(=O)c1ccc2c3n(nc2c1)-c1ccc(Cl)cc1CO3 | inconclusive: 8.2 µM [activator, partial curve] | 
CCOC(=O)CC1COc2ccccc2N1C(=O)c1cccc([N+](=O)[O-])c1 (stereo unspecified) |  | inactive: -11.4%
O=C(c1ccc2c(c1)OCO2)N1CCCc2ccccc21 | inconclusive: 20.6 µM [activator, partial curve, poor fit] | 
O=C(NCc1csc(-c2cccs2)n1)C1CC1 | inconclusive: 14.6 µM [activator, partial curve] | 
CC1CCCCC1NC(=O)Cn1cnc2c1c(=O)n(C)c(=O)n2C (stereo unspecified) |  | inactive: 9.25%
O=C(Nc1ccc(Cl)cc1Cl)C1=Cc2ccccc2OC1 | inconclusive: 3.66 µM [activator, partial curve] | 
CCOC(=O)c1nc2sc3c(c2c(=O)[nH]1)CCCC3 | inactive | 
Nc1ncnc2c1cnn2-c1ccccc1 | inconclusive: 29.1 µM [activator, single point] | 
COc1ccc(NC(=O)[C@@H]2[C@@H]3C(=O)N(C4CCCCC4)C(=O)[C@@H]3C3c4ccccc4C=CN32)cc1 (stereo partly specified) | inconclusive: 32.6 µM [inhibitor, single point] | 
Cc1cc2c(nn1)CCc1nonc1-2 |  | inactive: -1.41%
COCCNC(=O)C(=O)N/N=C/c1ccc(C(=O)OC)cc1 |  | inactive: 3.62%
COCC(C)NC(=O)C1c2ccccc2Oc2ccccc21 (stereo unspecified) |  | inactive: -6.72%
COc1ccc(N2CCN(C(=S)Nc3cccc(C)c3)CC2)cc1 |  | inactive: 1.58%

SMILES | Potency | activity change, negative = inhibition
CCCCN(Cc1cc2ccccc2[nH]c1=O)S(=O)(=O)c1ccc(C)cc1 | inconclusive: 29.1 µM [inhibitor, partial curve, poor fit] | 
CCC(Sc1ccccn1)C(=O)Nc1cccc([N+](=O)[O-])c1 (stereo unspecified) |  | inactive: 9.95%
Nc1c(-c2ccccc2)cnn1-c1ccc(C(=O)O)cc1 | inconclusive: 2.06 µM [activator, partial curve] | 
O=C(CSc1nc2ccc(Nc3nc(N4CCOCC4)nc(N4CCOCC4)n3)cc2s1)Nc1ccccc1Cl | active: 2.91 µM | 
Cc1cccc(NC(=O)Cn2nnc(-c3ccc(CN4CCCC4)cc3)n2)c1C | inconclusive: 29.1 µM [inhibitor, single point] | 
COc1ccc(C)cc1S(=O)(=O)Nc1cccc(-c2cn3cccnc3n2)c1 |  | inactive: 0.039%
O=C(NCCc1ccccc1)C1CCCN(c2ncnc3c2nc2n3CCCCC2)C1 (stereo unspecified) | inconclusive: 7.3 µM [inhibitor, partial curve, poor fit] | 
O=C(NC1CCCC1)C(c1cc2c(cc1[N+](=O)[O-])OCO2)N1CCCC1 (stereo unspecified) | inconclusive: 29.1 µM [activator, single point] | 
Cc1cc(C)n2nc(SCC(=O)N3CCCCC3C)nc2n1 (stereo unspecified) |  | inactive: 6.79%
CC(C)C(=O)Nc1nnc(NC(=S)Nc2ccccc2)s1 | inconclusive: 14.6 µM [activator, partial curve] | 
C=CCN(c1ccc(C(=O)Nc2cccc(C)c2)cc1)S(C)(=O)=O | inconclusive: 18.3 µM [inhibitor, single point] | 
CC1(C)C(CSc2nc3ccccc3[nH]2)C1(Cl)Cl (stereo unspecified) |  | inactive: 1.8%
CCOc1cc(C(=O)NCc2ccccc2)ccc1OCC(=O)N1CCOCC1 |  | inactive: 20.9%
O=C(N/N=C/c1ccc(-c2ccccc2[N+](=O)[O-])o1)[C@H]1C[C@@H]1c1ccccc1 | inconclusive: 29.1 µM [inhibitor, single point] | 
COCc1cc(=O)[nH]c2cc(NC(=O)c3cccc(OC)c3)c(C)cc12 |  | inactive: 0.628%
COc1ccc(NC(=O)c2ccc3c(c2)OCO3)cc1S(=O)(=O)N1CCOCC1 | inconclusive: 29.1 µM [inhibitor, single point] | 
C=CCn1c2ccccc2c2nnc(SCCCn3c(=O)[nH]c4ccccc43)nc21 | inconclusive: 29.1 µM [inhibitor, single point] | 
CC(C)c1ccc(/C=C/C(=O)Nc2nn[nH]n2)cc1 | inconclusive: 18.3 µM [activator, partial curve] | 
O=C(NCC(O)c1ccc([N+](=O)[O-])cc1)Nc1ccccc1 (stereo unspecified) |  | inactive: -1.09%
O=C(CCn1c(=O)sc2ccccc21)NCCC1=CCCCC1 | inconclusive: 14.6 µM [inhibitor, partial curve] | 
Cc1ccc(N=Nc2c(N)n[nH]c2N)cc1 | inconclusive: 18.3 µM [activator, partial curve] | 
COc1ccc(CNCCC(c2ccc(OC(C)C)cc2)c2ccccc2OC)cc1 (stereo unspecified) |  | inactive: -10.7%
COc1cc(OC)c2c(-c3cccc(-c4ccc(O)cc4)c3)cc(=O)oc2c1 | inconclusive: 7.3 µM [inhibitor, partial curve] | 
COc1ccc(C=NNC(=O)c2cc(C)oc2C)cc1O | inconclusive: 18.3 µM [activator, single point] | 

Exported tab-delimited: 17 of the compounds above.
SMILES	Potency	activity change, negative = inhibition
CCCCN(Cc1cc2ccccc2[nH]c1=O)S(=O)(=O)c1ccc(C)cc1	inconclusive: 29.1 µM [inhibitor, partial curve, poor fit]	
CCC(Sc1ccccn1)C(=O)Nc1cccc([N+](=O)[O-])c1 (stereo unspecified)		inactive: 9.95%
Nc1c(-c2ccccc2)cnn1-c1ccc(C(=O)O)cc1	inconclusive: 2.06 µM [activator, partial curve]	
O=C(CSc1nc2ccc(Nc3nc(N4CCOCC4)nc(N4CCOCC4)n3)cc2s1)Nc1ccccc1Cl	active: 2.91 µM	
Cc1cccc(NC(=O)Cn2nnc(-c3ccc(CN4CCCC4)cc3)n2)c1C	inconclusive: 29.1 µM [inhibitor, single point]	
COc1ccc(C)cc1S(=O)(=O)Nc1cccc(-c2cn3cccnc3n2)c1		inactive: 0.039%
O=C(NCCc1ccccc1)C1CCCN(c2ncnc3c2nc2n3CCCCC2)C1 (stereo unspecified)	inconclusive: 7.3 µM [inhibitor, partial curve, poor fit]	
O=C(NC1CCCC1)C(c1cc2c(cc1[N+](=O)[O-])OCO2)N1CCCC1 (stereo unspecified)	inconclusive: 29.1 µM [activator, single point]	
Cc1cc(C)n2nc(SCC(=O)N3CCCCC3C)nc2n1 (stereo unspecified)		inactive: 6.79%
CC(C)C(=O)Nc1nnc(NC(=S)Nc2ccccc2)s1	inconclusive: 14.6 µM [activator, partial curve]	
C=CCN(c1ccc(C(=O)Nc2cccc(C)c2)cc1)S(C)(=O)=O	inconclusive: 18.3 µM [inhibitor, single point]	
O=C(N/N=C/c1ccc(-c2ccccc2[N+](=O)[O-])o1)[C@H]1C[C@@H]1c1ccccc1	inconclusive: 29.1 µM [inhibitor, single point]	
COc1ccc(NC(=O)c2ccc3c(c2)OCO3)cc1S(=O)(=O)N1CCOCC1	inconclusive: 29.1 µM [inhibitor, single point]	
C=CCn1c2ccccc2c2nnc(SCCCn3c(=O)[nH]c4ccccc43)nc21	inconclusive: 29.1 µM [inhibitor, single point]	
CC(C)c1ccc(/C=C/C(=O)Nc2nn[nH]n2)cc1	inconclusive: 18.3 µM [activator, partial curve]	
COc1ccc(CNCCC(c2ccc(OC(C)C)cc2)c2ccccc2OC)cc1 (stereo unspecified)		inactive: -10.7%
COc1cc(OC)c2c(-c3cccc(-c4ccc(O)cc4)c3)cc(=O)oc2c1	inconclusive: 7.3 µM [inhibitor, partial curve]	

The listing continues:

SMILES | Potency | activity change, negative = inhibition
O=c1[nH]ncc(N/N=C\c2ccncc2)c1Cl | inconclusive: 20.6 µM [activator, partial curve] | 
Cc1ccc(NC(=O)CC2Nc3ccccc3NC2=O)cc1Cl (stereo unspecified) | inconclusive: 23.1 µM [activator, single point] | 
Cc1ccc2cc(CCNC(=O)c3cc4ccccc4o3)c(=O)[nH]c2c1C | inconclusive: 23.1 µM [inhibitor, single point] | 
CCC(Sc1ccc(C(=O)O)cc1)C(=O)O (stereo unspecified) |  | inactive: 5.99%
CC(C)c1ccc(OCC(=O)Nc2c3c(nn2C(C)(C)C)CS(=O)(=O)C3)cc1 | inconclusive: 25.9 µM [activator, single point] | 
COc1ccc(C(=O)Nc2cccc(OC(=O)c3ccc(C)c(C)c3)c2)cc1 | inconclusive: 3.66 µM [activator, single point] | 
COc1cccc(C(C(=O)NC2CCCC2)N(Cc2cccnc2)C(=O)Cc2cccs2)c1 (stereo unspecified) |  | inactive: 0.447%
Cc1ccc(N=Cc2c(O)c3ccccc3oc2=O)c(C)c1 | inconclusive: 10.3 µM [activator, partial curve] | 
O=C(Nc1cccc(Cl)c1)Nc1nnc(-c2ccncc2)s1 | inconclusive: 4.11 µM [inhibitor, full curve] | 
COc1ccccc1N1CCN(/N=C\c2sccc2C)CC1 | inconclusive: 4.61 µM [activator, full curve, poor fit] | 
COc1ccc(C(=O)n2c(-c3ccco3)nc3ccccc32)cc1 | inconclusive: 29.1 µM [activator, single point] | 
Cn1c2ccccc2c2cc(C(=O)N3CCN(CCO)CC3)sc21 | inconclusive: 7.31 µM [activator, partial curve, poor fit] | 
CC(=O)Nc1ccc(NC(=O)COC(=O)C2(c3ccc(Cl)cc3)CCCC2)cc1 | inconclusive: 23.1 µM [inhibitor, partial curve, poor fit] | 
COC(=O)c1ccccc1NC(=O)Cn1cc2c(n1)CCC(C)C2 (stereo unspecified) | inconclusive: 11.6 µM [activator, partial curve] | 
CN(C(=O)CSc1cccc[n+]1[O-])C1CCCCC1 | inconclusive: 8.2 µM [activator, single point] | 
Cc1ccc(C)c(S(=O)(=O)Nc2ccc(C(=O)NCCc3ccccn3)cc2)c1 |  | inactive: -1.19%
CCn1c(SCC(=O)Nc2ccc3c(c2)OCO3)nc2ccccc21 | inconclusive: 18.4 µM [inhibitor, single point] | 
COc1cccc(CNC(=O)COC(=O)/C=C/c2ccc(SC)cc2)c1 |  | inactive: 6.51%
CC(=O)N1CCN(c2ccc(NC(=S)NC(=O)c3ccc(C)c([N+](=O)[O-])c3)cc2)CC1 | active: 20.6 µM | 
COC(=O)C(C(=O)OC)c1ccc(NC(=O)c2cccc(Cl)c2)cc1 | inconclusive: 16.4 µM [activator, partial curve] | 
O=C(O)c1cc(-c2ccc(Br)s2)nc2ccccc12 | inconclusive: 20.6 µM [activator, single point] | 
O=C1CC(N2CCN(Cc3ccccc3)CC2)C(=O)N1c1ccc2c(c1)OCCO2 (stereo unspecified) | inconclusive: 11.6 µM [activator, single point] | 
O=C(Nc1cccc(S(=O)(=O)N2CCCCC2)c1)c1ccc(OCC2CCCO2)cc1 (stereo unspecified) | active: 13 µM | 
